The results in this text go back to paper PMC6981194.

Sequences of proteins named here, by UniProt entry; tags and fusion partners are left off.
UniProt P18708: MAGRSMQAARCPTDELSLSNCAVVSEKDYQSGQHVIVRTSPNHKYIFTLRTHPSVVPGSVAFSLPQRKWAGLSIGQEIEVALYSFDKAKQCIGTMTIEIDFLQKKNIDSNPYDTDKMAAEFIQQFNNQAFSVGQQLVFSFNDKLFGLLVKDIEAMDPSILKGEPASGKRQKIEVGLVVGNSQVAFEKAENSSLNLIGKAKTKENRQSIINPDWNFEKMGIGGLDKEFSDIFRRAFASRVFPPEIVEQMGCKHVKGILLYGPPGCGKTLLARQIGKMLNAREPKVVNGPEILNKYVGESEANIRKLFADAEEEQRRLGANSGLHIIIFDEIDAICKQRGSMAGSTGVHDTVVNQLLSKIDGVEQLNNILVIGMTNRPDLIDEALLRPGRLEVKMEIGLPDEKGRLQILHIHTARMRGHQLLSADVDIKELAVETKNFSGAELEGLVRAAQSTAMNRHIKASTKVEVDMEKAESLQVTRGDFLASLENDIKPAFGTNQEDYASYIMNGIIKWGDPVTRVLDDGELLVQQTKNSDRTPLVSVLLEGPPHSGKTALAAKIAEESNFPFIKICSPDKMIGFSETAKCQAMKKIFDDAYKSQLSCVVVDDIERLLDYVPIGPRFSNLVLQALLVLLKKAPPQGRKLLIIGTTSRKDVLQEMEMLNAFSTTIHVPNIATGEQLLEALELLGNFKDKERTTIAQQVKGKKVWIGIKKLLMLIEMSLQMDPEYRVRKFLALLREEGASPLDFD
UniProt P46460: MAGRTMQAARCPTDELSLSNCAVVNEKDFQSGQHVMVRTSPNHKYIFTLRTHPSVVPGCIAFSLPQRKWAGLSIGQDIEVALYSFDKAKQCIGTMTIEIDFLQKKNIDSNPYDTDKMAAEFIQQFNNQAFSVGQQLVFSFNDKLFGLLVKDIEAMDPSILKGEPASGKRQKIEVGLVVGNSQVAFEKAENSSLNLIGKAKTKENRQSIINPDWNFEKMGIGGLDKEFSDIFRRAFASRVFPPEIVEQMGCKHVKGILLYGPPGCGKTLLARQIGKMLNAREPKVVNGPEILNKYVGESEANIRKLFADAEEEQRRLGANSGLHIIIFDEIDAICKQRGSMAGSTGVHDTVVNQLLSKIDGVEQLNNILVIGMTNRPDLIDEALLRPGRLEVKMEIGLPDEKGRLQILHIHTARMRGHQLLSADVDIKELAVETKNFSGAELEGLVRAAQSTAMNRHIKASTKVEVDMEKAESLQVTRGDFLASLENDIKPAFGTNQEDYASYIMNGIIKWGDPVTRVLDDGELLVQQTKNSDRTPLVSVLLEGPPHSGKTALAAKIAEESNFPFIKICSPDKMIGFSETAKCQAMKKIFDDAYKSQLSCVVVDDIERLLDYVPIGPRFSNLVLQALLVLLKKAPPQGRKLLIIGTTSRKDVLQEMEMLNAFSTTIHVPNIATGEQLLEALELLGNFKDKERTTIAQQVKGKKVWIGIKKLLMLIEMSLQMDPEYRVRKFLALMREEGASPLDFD
UniProt A0A8C2QHS8: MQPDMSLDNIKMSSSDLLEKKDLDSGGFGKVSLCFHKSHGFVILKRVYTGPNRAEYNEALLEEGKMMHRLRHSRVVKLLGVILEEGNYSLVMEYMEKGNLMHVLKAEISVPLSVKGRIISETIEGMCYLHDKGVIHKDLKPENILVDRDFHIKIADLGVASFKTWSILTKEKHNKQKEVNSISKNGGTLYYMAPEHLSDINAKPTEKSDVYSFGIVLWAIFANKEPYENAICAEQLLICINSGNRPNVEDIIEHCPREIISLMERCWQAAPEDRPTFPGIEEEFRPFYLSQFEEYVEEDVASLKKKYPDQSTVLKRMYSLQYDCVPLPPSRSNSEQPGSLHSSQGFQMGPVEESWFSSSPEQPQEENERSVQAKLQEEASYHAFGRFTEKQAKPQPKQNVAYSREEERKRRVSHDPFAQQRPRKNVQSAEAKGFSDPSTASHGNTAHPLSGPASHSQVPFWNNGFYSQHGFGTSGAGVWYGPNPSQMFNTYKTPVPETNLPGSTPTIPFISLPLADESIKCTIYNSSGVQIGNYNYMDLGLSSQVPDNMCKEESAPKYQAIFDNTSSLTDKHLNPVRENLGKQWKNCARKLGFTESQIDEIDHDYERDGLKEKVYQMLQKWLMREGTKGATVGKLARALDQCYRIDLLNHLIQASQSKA

Results are given in words; binding and its absence hold for the method and conditions named. Binding seen in cells or lysates may run through a third protein. Some binding calls cover weakened binding; strength is not graded here.

The target in assay [1] is T1, ASIC1a N-terminal truncation mutant Δ1–20 (mouse) (UniProt Q6NXK8).
T1 sequence: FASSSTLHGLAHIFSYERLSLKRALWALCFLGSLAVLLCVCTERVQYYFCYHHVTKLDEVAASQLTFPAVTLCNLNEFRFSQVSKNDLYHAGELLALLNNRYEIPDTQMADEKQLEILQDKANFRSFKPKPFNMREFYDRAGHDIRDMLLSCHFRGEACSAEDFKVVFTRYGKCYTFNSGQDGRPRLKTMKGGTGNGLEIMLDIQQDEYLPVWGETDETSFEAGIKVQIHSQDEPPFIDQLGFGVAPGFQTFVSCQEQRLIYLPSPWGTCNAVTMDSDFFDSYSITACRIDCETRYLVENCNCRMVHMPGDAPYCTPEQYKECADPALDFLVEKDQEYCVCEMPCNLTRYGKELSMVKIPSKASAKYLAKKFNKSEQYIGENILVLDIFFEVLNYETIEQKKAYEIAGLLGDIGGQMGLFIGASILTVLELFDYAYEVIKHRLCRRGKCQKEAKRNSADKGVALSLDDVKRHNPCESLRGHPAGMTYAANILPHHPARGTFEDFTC
Kind of assay: co-IP; lysates of transfected CHO cells exposed to pH 7.4 or pH 6.0; anti-ASIC1a antibody, Protein G agarose, 4 °C; lysis buffer 20 mM Tris-Cl pH 7.4, 150 mM NaCl, 1% Triton X-100; blots for RIPK1 and NSF.

For assay [2], the target named is T2, ASIC1a N-terminal truncation mutant Δ1–41 (mouse) (UniProt Q6NXK8).
T2 sequence: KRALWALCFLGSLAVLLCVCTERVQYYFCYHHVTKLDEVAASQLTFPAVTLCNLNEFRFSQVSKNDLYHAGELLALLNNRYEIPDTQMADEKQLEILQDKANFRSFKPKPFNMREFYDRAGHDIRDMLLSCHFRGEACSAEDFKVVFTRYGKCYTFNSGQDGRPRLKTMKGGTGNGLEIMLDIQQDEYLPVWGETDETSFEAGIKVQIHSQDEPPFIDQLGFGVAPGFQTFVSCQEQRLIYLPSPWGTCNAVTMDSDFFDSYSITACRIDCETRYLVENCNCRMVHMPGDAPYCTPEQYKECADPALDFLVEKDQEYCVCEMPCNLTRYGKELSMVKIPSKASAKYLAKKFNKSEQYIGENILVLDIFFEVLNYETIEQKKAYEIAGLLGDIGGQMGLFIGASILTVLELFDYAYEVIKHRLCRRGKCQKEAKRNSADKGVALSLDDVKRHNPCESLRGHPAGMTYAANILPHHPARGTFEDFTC
Described as above.

In assay [3] the target is T3, acid-sensing ion channel 1a (ASIC1a), wild type, expressed in CHO cells (mouse) (UniProt Q6NXK8).
T3 sequence: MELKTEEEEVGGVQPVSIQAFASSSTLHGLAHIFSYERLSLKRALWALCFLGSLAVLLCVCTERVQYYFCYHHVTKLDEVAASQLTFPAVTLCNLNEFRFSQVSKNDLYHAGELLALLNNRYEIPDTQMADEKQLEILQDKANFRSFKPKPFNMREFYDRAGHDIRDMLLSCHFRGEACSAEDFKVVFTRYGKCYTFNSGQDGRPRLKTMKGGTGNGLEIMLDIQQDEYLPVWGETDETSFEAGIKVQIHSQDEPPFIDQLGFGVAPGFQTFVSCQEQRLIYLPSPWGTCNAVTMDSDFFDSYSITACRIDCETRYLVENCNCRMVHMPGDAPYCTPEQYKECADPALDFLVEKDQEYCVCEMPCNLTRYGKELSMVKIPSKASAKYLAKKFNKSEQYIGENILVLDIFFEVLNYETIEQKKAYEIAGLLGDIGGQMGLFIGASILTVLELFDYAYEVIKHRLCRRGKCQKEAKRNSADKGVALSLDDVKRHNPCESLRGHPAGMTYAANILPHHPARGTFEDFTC
The description is as above.

Assay [4] deals with T4, acid-sensing ion channel 1a (ASIC1a), endogenous in mouse brain and cultured mouse cortical neurons (mouse (endogenous in brain and cortical neurons)) (UniProt Q6NXK8).
T4 sequence: T3 sequence
Kind of assay: co-IP; lysates of contralateral and ischemic (MCAO, 1 h) mouse brain hemispheres, WT and ASIC1a KO mice; anti-ASIC1a, anti-RIPK1 or anti-NSF antibody, Protein G agarose, 4 °C; lysis buffer 20 mM Tris-Cl pH 7.4, 150 mM NaCl, 1% Triton X-100.

Assay [5] concerns the target T5, receptor-interacting serine/threonine-protein kinase 1 (RIPK1), endogenous in mouse brain and cultured mouse cortical neurons (mouse (endogenous in brain and cortical neurons)) (UniProt Q60855).
T5 sequence: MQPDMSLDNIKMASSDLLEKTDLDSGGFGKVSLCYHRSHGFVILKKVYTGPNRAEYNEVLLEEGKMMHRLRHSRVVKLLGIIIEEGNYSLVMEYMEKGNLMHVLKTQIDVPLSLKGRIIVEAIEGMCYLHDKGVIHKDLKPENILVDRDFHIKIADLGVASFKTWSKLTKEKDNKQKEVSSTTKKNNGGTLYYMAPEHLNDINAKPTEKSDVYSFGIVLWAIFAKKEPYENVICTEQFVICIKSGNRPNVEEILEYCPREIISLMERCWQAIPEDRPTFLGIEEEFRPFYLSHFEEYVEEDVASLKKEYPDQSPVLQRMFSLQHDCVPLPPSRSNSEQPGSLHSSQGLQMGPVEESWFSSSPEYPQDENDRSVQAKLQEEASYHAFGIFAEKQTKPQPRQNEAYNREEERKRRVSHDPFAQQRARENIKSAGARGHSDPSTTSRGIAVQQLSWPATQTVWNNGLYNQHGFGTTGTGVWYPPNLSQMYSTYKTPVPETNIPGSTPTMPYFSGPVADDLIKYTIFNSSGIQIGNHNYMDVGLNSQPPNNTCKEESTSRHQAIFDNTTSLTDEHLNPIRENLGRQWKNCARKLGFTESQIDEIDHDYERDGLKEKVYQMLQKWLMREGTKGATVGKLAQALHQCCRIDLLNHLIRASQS
The description is as above.

Turning to “N-ethylmaleimide-sensitive fusion ATPase (NSF) in CHO cells (from UniProt P18708 1-744)”, the binding result in assay [1], in assay [2] and in assay [3] was “binds” each time.

Consider “N-ethylmaleimide-sensitive fusion ATPase (NSF), endogenous in mouse brain and cultured mouse cortical neurons (from UniProt P46460 1-744)”, for which the binding entry in assay [4] and in assay [5] was “binds” throughout.

As for “receptor-interacting serine/threonine-protein kinase 1 (RIPK1) in CHO cells (from UniProt A0A8C2QHS8 1-659)”, the binding entry in assay [1] and in assay [3] was “binds” each time.
